Results from one PubChem assay

Source: PubChem BioAssay AID504749 (NCATS, 2011).

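Malaria parasite (P. falciparum) lines kept in red blood cells; parasite DNA is measured by SYBR Green fluorescence after lysis, 72 h after compound addition. Each compound was titrated across a series from about 0.000037 to 29 µM. The number is the fitted AC50, the concentration giving a half-maximal change in signal; a lower value means higher potency, whether the curve shows a decrease or an increase. Calls follow the curve class and fit quality: every row here is inconclusive, covering signal-raising curves and weak, poorly fitted, partial or highest-dose-only inhibition curves.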

Values are in µM. Every entry below has the call inconclusive. Only part of the assay is shown, chiefly results filed as inconclusive. A potency from a partial, single-point or poor curve is only a rough figure.

{"compound": "Clc1cccc(N2CCNCC2)c1", "setting": "DIV14", "fitted potency (µM)": "16.94", "curve as filed": "inhibitor, single point"}
{"compound": "Clc1cccc(N2CCNCC2)c1", "setting": "DIV17", "fitted potency (µM)": "19.01", "curve as filed": "inhibitor, single point"}
{"compound": "Clc1cccc(N2CCNCC2)c1", "setting": "CP297", "fitted potency (µM)": "6.012", "curve as filed": "inhibitor, partial curve, poor fit"}
{"compound": "Clc1cccc(N2CCNCC2)c1", "setting": "Dd2", "fitted potency (µM)": "11.22", "curve as filed": "inhibitor, partial curve, poor fit"}
{"compound": "Clc1cccc(N2CCNCC2)c1", "setting": "GB4", "fitted potency (µM)": "12", "curve as filed": "inhibitor, partial curve"}
{"compound": "Clc1cccc(N2CCNCC2)c1", "setting": "CP194", "fitted potency (µM)": "12", "curve as filed": "inhibitor, partial curve, poor fit"}
{"compound": "Clc1cccc(N2CCNCC2)c1", "setting": "CP237", "fitted potency (µM)": "11.22", "curve as filed": "inhibitor, single point"}
{"compound": "Clc1cccc(N2CCNCC2)c1", "setting": "CP335", "fitted potency (µM)": "15.1", "curve as filed": "inhibitor, partial curve, poor fit"}
{"compound": "Clc1cccc(N2CCNCC2)c1", "setting": "7G8", "fitted potency (µM)": "12.59", "curve as filed": "inhibitor, partial curve"}
{"compound": "CN1C(=O)CN2CCc3ccccc3C2c2cc(Cl)ccc21", "stereo": "configuration not stated", "setting": "N140", "fitted potency (µM)": "10", "curve as filed": "inhibitor, single point"}
{"compound": "CN1C(=O)CN2CCc3ccccc3C2c2cc(Cl)ccc21", "stereo": "configuration not stated", "setting": "AS120", "fitted potency (µM)": "11.22", "curve as filed": "inhibitor, single point"}
{"compound": "CN1C(=O)CN2CCc3ccccc3C2c2cc(Cl)ccc21", "stereo": "configuration not stated", "setting": "CP260", "fitted potency (µM)": "14.13", "curve as filed": "inhibitor, single point"}
{"compound": "CN1C(=O)CN2CCc3ccccc3C2c2cc(Cl)ccc21", "stereo": "configuration not stated", "setting": "W2", "fitted potency (µM)": "12", "curve as filed": "inhibitor, single point"}
{"compound": "CN1C(=O)CN2CCc3ccccc3C2c2cc(Cl)ccc21", "stereo": "configuration not stated", "setting": "ICS", "fitted potency (µM)": "14.13", "curve as filed": "inhibitor, partial curve, poor fit"}
{"compound": "CN1C(=O)CN2CCc3ccccc3C2c2cc(Cl)ccc21", "stereo": "configuration not stated", "setting": "TAB113", "fitted potency (µM)": "3.981", "curve as filed": "inhibitor, partial curve"}
{"compound": "CN1C(=O)CN2CCc3ccccc3C2c2cc(Cl)ccc21", "stereo": "configuration not stated", "setting": "CP217", "fitted potency (µM)": "17.78", "curve as filed": "inhibitor, single point"}
{"compound": "CN1C(=O)CN2CCc3ccccc3C2c2cc(Cl)ccc21", "stereo": "configuration not stated", "setting": "GB4", "fitted potency (µM)": "15.1", "curve as filed": "inhibitor, partial curve, poor fit"}
{"compound": "CN1C(=O)CN2CCc3ccccc3C2c2cc(Cl)ccc21", "stereo": "configuration not stated", "setting": "CP237", "fitted potency (µM)": "8.912", "curve as filed": "inhibitor, partial curve"}
{"compound": "CN1C(=O)CN2CCc3ccccc3C2c2cc(Cl)ccc21", "stereo": "configuration not stated", "setting": "PC26", "fitted potency (µM)": "15.1", "curve as filed": "inhibitor, single point"}

Repeated from the top, 2 entries:

For Clc1cccc(N2CCNCC2)c1 [DIV14] the result was fitted potency 16.94 µM (inhibitor, single point).
For Clc1cccc(N2CCNCC2)c1 [DIV17] the result was fitted potency 19.01 µM (inhibitor, single point).